The results in this text go back to PubChem BioAssay AID493014 (National Center for Advancing Translational Sciences (NCATS), 2011).

SMILES strings stand for the structures. Some of the results follow. Further columns of the screen follow, without active or inactive calls. Most of these compounds were active or inconclusive in the main read-out, so they are no random draw. Words in brackets tell the shape of the fitted curve; partial curves, single points and poor fits give uncertain potencies.

This experiment is described as follows: qHTS Assay to Find Inhibitors of Chronic Active B-Cell Receptor Signaling. Conditions: ABC-DLBCL IkBa-CBG/CBR reporter, luminescence ratio (green luciferase fused to IkBa over red control in TMD8 lymphoma cells), 4 h. In a few lines:
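TMD8 ABC-DLBCL cells carrying doxycycline-inducible green luciferase fused to IkappaBalpha plus unfused red luciferase were exposed to compounds (up to 46 uM) for 4 hrs at 37C. Activity came from the overlap-corrected green/red luminescence ratio.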
(In general: Quantitative high-throughput screening tests each substance at several concentrations.)

Where [1] appears, read: measured here: CBR red luminescence, cell number.
[2] abbreviates: measured here: IkBa-CBG green luminescence.

In general, AC50 refers to the concentration giving half of the maximal activity seen. Take `O=C(CC1C(=O)N(c2ccc(Cl)cc2)C(=S)N1CCc1ccncc1)Nc1ccc(F)cc1` (configuration not stated): under setting [1], the concentration at half-maximal activity (AC50) was 20 µM [falling, partial curve, poor fit].

For `CC(C)(C(N)=O)N1CCN(c2ncc(C(F)(F)F)cc2Cl)CC1`, under setting [1], the AC50 is 0.184 µM [falling, full curve, poor fit]. The same measure, in the same setting: the figure for `CC1=CCC(C(=O)O)C(C(=O)Nc2ccc(-c3nc4ccc(C)cc4s3)cc2)C1` (configuration not stated) is 35.5 µM [falling, single point]; for `CC1CCc2nn(CC(=O)N3CCc4ccccc43)cc2C1` (configuration not stated) it is 6.51 µM [falling, single point]. On the same count and under the same terms, under `Brc1ccc(OCCOCCN2CCOCC2)cc1` stands 11.6 µM [rising, partial curve, poor fit]; under `O=C(CSc1nnc(SCc2ccc(F)cc2)s1)Nc1ccc(C(=O)O)cc1`, 8.91 µM [falling, partial curve, poor fit]. Same read-out and setting: under `CCc1c(C)[nH]c(C(=O)OCc2ccccc2)c1C` stands 7.94 µM [rising, partial curve]; under `Cc1ccc(-c2nc3cnccn3c2Nc2ccc3c(c2)OCO3)cc1`, 35.5 µM [falling, single point]; under `COc1ccc(C2NC(=O)CCC2[N+](=O)[O-])cc1OC` (configuration not stated), 15.8 µM [falling, partial curve, poor fit]. Consider `CC1CN(c2cc(-c3ccccc3)c3ccccc3n2)CC(C)O1` (configuration not stated), for which, under setting [1], the AC50 is 20.6 µM [rising, partial curve, poor fit].

Turning to `Cc1ccn2c(NC(=O)c3ccccc3)c(-c3ccccc3)nc2c1`, the concentration at half-maximal activity (AC50) under setting [1] is 0.112 µM [rising, full curve, poor fit]. Same read-out and setting: under `Cc1cccc(CS(=O)(=O)c2ncc(Cl)c(C(=O)Nc3c(C)cccc3C)n2)c1` stands 20 µM [falling, single point].

For `COc1cc([N+](=O)[O-])ccc1NC(=O)CSc1nccn1C`, the half-maximal activity concentration (AC50) under setting [1] is 12.6 µM [falling, single point] and the half-maximal activity concentration (AC50) under setting [2] was 17.8 µM [rising, partial curve, poor fit]. With `CCCCC(CCC(=O)Nc1cccc([N+](=O)[O-])c1)C(=O)O` (configuration not stated), under setting [1], the AC50 is 35.5 µM [rising, single point]. Still for that read-out and setting: the figure for `CC(CC(=O)Nc1ccc2c(c1)OCCO2)c1ccccc1` (configuration not stated) is 2.91 µM [rising, full curve, poor fit]; for `CCOC(=O)Cc1csc(NC(=O)CSc2nnc(C3CC3)n2C)n1` it is 6.51 µM [falling, partial curve].

Turning to `NC(=O)c1c(NC(=O)CSc2nnc(-c3ccco3)n2-c2ccccc2)sc2c1CCC2`, under setting [1], the AC50 was 17.8 µM [falling, partial curve, poor fit]. Still for that read-out and setting: under `Cc1cccc2cc(CN(CC3CCCO3)S(=O)(=O)c3ccccc3)c(=O)[nH]c12` (configuration not stated) stands 3.98 µM [falling, full curve]; under `CCOc1ccccc1N1CCN(c2nc(N)c(C#N)c(CC#N)c2C#N)CC1`, 0.651 µM [falling, partial curve, poor fit]. The same measure, in the same setting: under `Cc1ccc(S(=O)(=O)NC(=O)Nc2cc(C)no2)cc1` stands 6.31 µM [rising, partial curve, poor fit]. Take `COc1ccc(C(=O)OCc2nc(N)nc(Nc3ccccc3C)n2)cc1OC`: the AC50 runs as follows: under setting [1], 1.41 µM [rising, partial curve, poor fit]; under setting [2], 5.62 µM [falling, partial curve, poor fit]. As to `COC(=O)CN(C#N)c1nc(SC)nc(N(C)C)n1`, under setting [1], the AC50 is 0.146 µM [falling, full curve, poor fit]. Still for that read-out and setting: the figure for `Cc1ccc2c(c1)c1c(n2CC(O)CNC(C)(C)C)CCCC1` (configuration not stated) is 11.2 µM [falling, partial curve, poor fit]; for `O=C(NNC(=O)c1ccncc1)c1ccccc1` it is 35.5 µM [falling, single point]. On the same count and under the same terms, under `COc1ccc(CN2CCSCC2)c(OC)c1C` stands 1 µM [rising, full curve, poor fit]; under `Cn1cccc1C(=O)NC1CCCCCC1`, 18.4 µM [falling, partial curve, poor fit].

As to `Cc1c(Cl)cccc1NC(=S)NCCC(c1ccccc1)c1ccccc1`, the AC50 under setting [1] was 32.6 µM [falling, partial curve, poor fit]. On the same count and under the same terms, the figure for `O=C(c1ccccc1)c1sc(N2CCCCCC2)nc1-c1ccccc1` is 12.6 µM [rising, partial curve, poor fit]; for `Cc1nnc(N/N=C/c2ccc(-c3ccc(Br)cc3)o2)n1N` it is 3.55 µM [rising, partial curve, poor fit]; for `COc1ccc(C2(C(=O)Nc3ccc(C)cc3)CCOCC2)cc1` it is 0.794 µM [rising, full curve, poor fit].

As for `Cc1nnc(SCC(=O)Nc2nccs2)n(N)c1=O`, under setting [1], the AC50 was 7.94 µM [falling, partial curve].

For the molecule `CC(C)C(=O)N1CCN(c2nc(-c3ccc(Cl)cc3)cs2)CC1`, the concentration at half-maximal activity (AC50) under setting [1] was 3.55 µM [falling, partial curve].

As for `COc1ccc(Cl)cc1C(=O)Nc1nc2ccc(S(C)(=O)=O)cc2s1`, the half-maximal activity concentration (AC50) under setting [1] is 3.98 µM [rising, full curve, poor fit].

`Cc1ccnc(NC(=O)c2ccc(OCC3CCCO3)cc2)c1` (configuration not stated): the concentration at half-maximal activity (AC50) under setting [1] was 14.6 µM [falling, partial curve]. Same read-out and setting: under `CCC(C(=O)OC)n1cnc2c(oc3ccccc32)c1=O` (configuration not stated) stands 20 µM [rising, partial curve, poor fit]. On the same count and under the same terms, the figure for `Cc1cnc(NC(=O)c2cc3ccccc3o2)s1` is 3.98 µM [falling, full curve]; for `O=C(CN1CC[n+]2c(-c3cccs3)csc21)c1ccc(Br)cc1` it is 0.562 µM [rising, full curve, poor fit]. As for `CCCCn1c(N)c(S(=O)(=O)c2ccc(C)cc2)c2nc3ccccc3nc21`, the AC50 by setting is: under setting [1], 20.6 µM [falling, partial curve]; under setting [2], 25.9 µM [rising, partial curve, poor fit].

`COc1cc(-c2ccccc2)nc(N)n1`: the AC50 under setting [1] is 2.59 µM [falling, partial curve, poor fit]. `COc1ccccc1N(CC(=O)Nc1ccc2c(c1)OCO2)S(=O)(=O)c1ccccc1`: the concentration at half-maximal activity (AC50) under setting [1] was 1.78 µM [falling, partial curve]. As to `CN(C)S(=O)(=O)c1ccc(Cl)c(C(=O)OCC(=O)NC(=O)c2cccn2C)c1`, the concentration at half-maximal activity (AC50) under setting [1] was 5.8 µM [falling, partial curve]. Regarding `COc1ccc(CNC(=O)C2CCN(S(=O)(=O)c3ccc4c(c3)CC(C)N4C(=O)C3CC3)CC2)cc1` (configuration not stated), under setting [1], the AC50 is 6.31 µM [rising, partial curve, poor fit]. The same measure, in the same setting: the figure for `Cc1ccc(-n2ncc3c(=O)n(Cc4ccccn4)cnc32)cc1C` is 25.1 µM [falling, single point]; for `O=c1c(/C=N/OCc2ccc(Cl)cc2Cl)c[nH]n1-c1cccc(Cl)n1` it is 35.5 µM [falling, single point]; for `CCCOc1ccc(OCCN2CCCC(C)C2)cc1` (configuration not stated) it is 9.2 µM [rising, partial curve]. Same read-out and setting: the figure for `COc1ccc(-c2cc(C(=O)N3CCCC3)no2)cc1` is 4.47 µM [falling, partial curve]. Consider `Cc1cccc(N2CCN(C(=O)CC(NC(=O)c3ccccc3)c3ccccc3)CC2C)c1` (configuration not stated), for which, under setting [1], the half-maximal activity concentration (AC50) is 23.1 µM [rising, single point]. On the same count and under the same terms, under `CCN(CC)c1cc(Oc2ccccc2)ncn1` stands 18.4 µM [rising, single point]; under `O=C(c1ccco1)N1CCN(c2ccc([N+](=O)[O-])cc2F)CC1`, 35.5 µM [rising, single point]; under `Cc1cc(NC(=O)c2cc([N+](=O)[O-])ccc2Cl)no1`, 17.8 µM [falling, single point]. Same read-out and setting: the figure for `CC(C)N1C2OC(C3OC4C(O3)N(C(C)C)S(=O)(=O)N4C(C)C)OC2N(C(C)C)S1(=O)=O` (configuration not stated) is 25.9 µM [falling, partial curve, poor fit]. Still for that read-out and setting: the figure for `Cc1cc(C)nc(NC(N)=NCCc2c[nH]c3ccccc23)n1` is 11.2 µM [falling, partial curve]; for `Cc1cc(NC(=O)/C=C/c2ccccc2Cl)n(-c2nc3ccccc3[nH]2)n1` it is 10.3 µM [falling, partial curve, poor fit]. For the molecule `COc1ccccc1CNC(=O)C1(NC(=O)Nc2ccc(C)cc2)CCCCC1`, the concentration at half-maximal activity (AC50) under setting [1] is 6.31 µM [rising, full curve, poor fit]. Still for that read-out and setting: the figure for `CCCC(c1nnnn1CS(=O)(=O)c1ccc(C)cc1)N1CCN(CC)CC1` (configuration not stated) is 6.31 µM [rising, single point]. With `O=C(NNC(=S)Nc1ccccc1)c1cccnc1`, the AC50 under setting [1] is 11.2 µM [falling, partial curve]. On to `Cn1c(=O)c2c(-c3ccccc3)n(-n3cnnc3)cc2n(C)c1=O`, for which, under setting [1], the AC50 is 15.8 µM [falling, single point].

As for `O=C1NC(=O)/C(=C\c2ccc(O)cc2O)S1`, the half-maximal activity concentration (AC50) under setting [1] was 8.91 µM [falling, partial curve]. On the same count and under the same terms, the figure for `O=c1[nH]c(CN2CCN(Cc3ccc4c(c3)OCO4)CC2)nc2sc3c(c12)CCC3` is 6.51 µM [rising, single point]. Consider `COCc1cc(C)nc(N/N=C/c2ccc(-c3ccc(C(=O)O)c(Cl)c3)o2)c1C#N`, for which the concentration at half-maximal activity (AC50) under setting [2] is 8.91 µM [rising, partial curve, poor fit]. As for `O=c1c2c3c(sc2n2cnnc2n1C1CCCCC1)CCC3`, the AC50 under setting [1] is 7.94 µM [rising, partial curve, poor fit]. The same measure, in the same setting: the figure for `Cc1ccc(C2=Nc3ccccc3N=C(C(Cl)Cl)C2)cc1` is 25.1 µM [falling, single point]. Still for that read-out and setting: the figure for `CCCCc1ncc(CN2CCN(Cc3ccc(C)cc3)C(CCO)C2)[nH]1` (configuration not stated) is 35.5 µM [falling, single point]; for `O=C(NCCc1ccccc1)c1noc2c1CCCCC2` it is 11.2 µM [falling, single point].
